{"source": "PubChem BioAssay AID743121 | NCATS, 2013", "test": "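Partners whose loss is lethal together with topoisomerase I blockade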 (primary screen)", "cells": "MDA-MB-231 cells, a human breast cancer line", "reagents": "single siRNA against human genes, 20 nM siRNA (0.8 pmol per well)", "timing": "120 h (drug added 48 h after transfection, read 72 h later)", "challenge": "camptothecin 20 nM (about EC30) for 72 h; vehicle 0.1% DMSO in parallel plates", "measurement": "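Cell viability by ATP luminescence (CellTiter-Glo) as % of non-targeting siRNA wells, and the log2 ratio of viability without drug over viability with camptothecin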", "reading the numbers": "log2 vehicle/camptothecin viability: higher = stronger sensitisation to camptothecin", "hit rule": "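Active genes have an RSA gene-level p-value below 0.001, computed from the ratios of their separate siRNAs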", "note": "The deposit covers about 26,000 reagents; this is a part drawn at random. 167 of them (0.63%) count as active. 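Calls are per gene from RSA p-values that are not deposited; an individual active-marked siRNA can sensitise only weakly.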 Unmarked entries are inactive. Not all columns of the deposit are shown. Reagent sequences are not shown."}
{"gene": "KDELR3 (GeneID 11015)", "PubChem SID": "SID164414945", "log2 vehicle/camptothecin viability": -0.227}
{"gene": "KDELR3 (GeneID 11015)", "PubChem SID": "SID164414949", "log2 vehicle/camptothecin viability": -0.0833}
{"gene": "KDELR3 (GeneID 11015)", "PubChem SID": "SID164414951", "log2 vehicle/camptothecin viability": 0.124}
{"gene": "KDELR3 (GeneID 11015)", "PubChem SID": "SID164414956", "log2 vehicle/camptothecin viability": -0.179}
{"gene": "XRCC5 (GeneID 7520)", "PubChem SID": "SID164394282", "log2 vehicle/camptothecin viability": -0.231}
{"gene": "XRCC5 (GeneID 7520)", "PubChem SID": "SID164394283", "log2 vehicle/camptothecin viability": 0.258}
{"gene": "XRCC5 (GeneID 7520)", "PubChem SID": "SID164394286", "log2 vehicle/camptothecin viability": -0.0384}
{"gene": "XRCC5 (GeneID 7520)", "PubChem SID": "SID164394287", "log2 vehicle/camptothecin viability": 0.544}
{"gene": "ZNF398 (GeneID 57541)", "PubChem SID": "SID164494783", "log2 vehicle/camptothecin viability": -0.156}
{"gene": "ZNF398 (GeneID 57541)", "PubChem SID": "SID164494784", "log2 vehicle/camptothecin viability": 0.258}
{"gene": "ZNF398 (GeneID 57541)", "PubChem SID": "SID164494790", "log2 vehicle/camptothecin viability": -0.373}
{"gene": "ZWINT (GeneID 11130)", "PubChem SID": "SID164415758", "log2 vehicle/camptothecin viability": -0.336}
{"gene": "ZWINT (GeneID 11130)", "PubChem SID": "SID164415761", "log2 vehicle/camptothecin viability": -0.0734}
{"gene": "ZWINT (GeneID 11130)", "PubChem SID": "SID164415762", "log2 vehicle/camptothecin viability": -0.29}
{"gene": "ZWINT (GeneID 11130)", "PubChem SID": "SID164415763", "log2 vehicle/camptothecin viability": 0.437}

2 successive records already listed, quoted:
{"gene": "XRCC5 (GeneID 7520)", "PubChem SID": "SID164394283", "log2 vehicle/camptothecin viability": 0.258}
{"gene": "XRCC5 (GeneID 7520)", "PubChem SID": "SID164394286", "log2 vehicle/camptothecin viability": -0.0384}

The results go on:
{"gene": "SLC12A2 (GeneID 6558)", "PubChem SID": "SID164388540", "log2 vehicle/camptothecin viability": -0.00204}
{"gene": "SLC12A2 (GeneID 6558)", "PubChem SID": "SID164388542", "log2 vehicle/camptothecin viability": -0.0733}
{"gene": "SLC12A2 (GeneID 6558)", "PubChem SID": "SID164388543", "log2 vehicle/camptothecin viability": 0.0669}
{"gene": "SLC12A2 (GeneID 6558)", "PubChem SID": "SID164388544", "log2 vehicle/camptothecin viability": -0.208}
{"gene": "LAMP2 (GeneID 3920)", "PubChem SID": "SID164373525", "log2 vehicle/camptothecin viability": -0.63}
{"gene": "LAMP2 (GeneID 3920)", "PubChem SID": "SID164373527", "log2 vehicle/camptothecin viability": -0.0399}
{"gene": "LAMP2 (GeneID 3920)", "PubChem SID": "SID164373528", "log2 vehicle/camptothecin viability": -0.185}
{"gene": "LAMP2 (GeneID 3920)", "PubChem SID": "SID164373530", "log2 vehicle/camptothecin viability": -0.316}
{"gene": "CHAT (GeneID 1103)", "PubChem SID": "SID164358181", "log2 vehicle/camptothecin viability": 0.142}
{"gene": "CHAT (GeneID 1103)", "PubChem SID": "SID164358184", "log2 vehicle/camptothecin viability": -0.408}
{"gene": "CHAT (GeneID 1103)", "PubChem SID": "SID164358185", "log2 vehicle/camptothecin viability": -0.953}
{"gene": "PANK4 (GeneID 55229)", "PubChem SID": "SID164483740", "log2 vehicle/camptothecin viability": -0.146}
{"gene": "PANK4 (GeneID 55229)", "PubChem SID": "SID164483741", "log2 vehicle/camptothecin viability": -0.184}
{"gene": "PANK4 (GeneID 55229)", "PubChem SID": "SID164483743", "log2 vehicle/camptothecin viability": 0.884}
{"gene": "PANK4 (GeneID 55229)", "PubChem SID": "SID164483746", "log2 vehicle/camptothecin viability": -0.0895}
{"gene": "TLK2 (GeneID 11011)", "PubChem SID": "SID164414912", "log2 vehicle/camptothecin viability": -0.346}
{"gene": "TLK2 (GeneID 11011)", "PubChem SID": "SID164414914", "log2 vehicle/camptothecin viability": -0.000368}
{"gene": "TLK2 (GeneID 11011)", "PubChem SID": "SID164414917", "log2 vehicle/camptothecin viability": -0.184}
{"gene": "TLK2 (GeneID 11011)", "PubChem SID": "SID164414920", "log2 vehicle/camptothecin viability": 0.022}
{"gene": "BAZ1B (GeneID 9031)", "PubChem SID": "SID164401237", "log2 vehicle/camptothecin viability": -0.0567}
{"gene": "BAZ1B (GeneID 9031)", "PubChem SID": "SID164401238", "log2 vehicle/camptothecin viability": 0.0891}
{"gene": "BAZ1B (GeneID 9031)", "PubChem SID": "SID164401239", "log2 vehicle/camptothecin viability": -0.183}
{"gene": "BAZ1B (GeneID 9031)", "PubChem SID": "SID164401241", "log2 vehicle/camptothecin viability": -0.205}
